# Laboratory results taken from PubChem BioAssay AID651768 (National Center for Advancing Translational Sciences (NCATS), 2012).
# By UniProt entry, the sequences of proteins in these tests, tags left out.
# UniProt Q14191, whole entry, looked up: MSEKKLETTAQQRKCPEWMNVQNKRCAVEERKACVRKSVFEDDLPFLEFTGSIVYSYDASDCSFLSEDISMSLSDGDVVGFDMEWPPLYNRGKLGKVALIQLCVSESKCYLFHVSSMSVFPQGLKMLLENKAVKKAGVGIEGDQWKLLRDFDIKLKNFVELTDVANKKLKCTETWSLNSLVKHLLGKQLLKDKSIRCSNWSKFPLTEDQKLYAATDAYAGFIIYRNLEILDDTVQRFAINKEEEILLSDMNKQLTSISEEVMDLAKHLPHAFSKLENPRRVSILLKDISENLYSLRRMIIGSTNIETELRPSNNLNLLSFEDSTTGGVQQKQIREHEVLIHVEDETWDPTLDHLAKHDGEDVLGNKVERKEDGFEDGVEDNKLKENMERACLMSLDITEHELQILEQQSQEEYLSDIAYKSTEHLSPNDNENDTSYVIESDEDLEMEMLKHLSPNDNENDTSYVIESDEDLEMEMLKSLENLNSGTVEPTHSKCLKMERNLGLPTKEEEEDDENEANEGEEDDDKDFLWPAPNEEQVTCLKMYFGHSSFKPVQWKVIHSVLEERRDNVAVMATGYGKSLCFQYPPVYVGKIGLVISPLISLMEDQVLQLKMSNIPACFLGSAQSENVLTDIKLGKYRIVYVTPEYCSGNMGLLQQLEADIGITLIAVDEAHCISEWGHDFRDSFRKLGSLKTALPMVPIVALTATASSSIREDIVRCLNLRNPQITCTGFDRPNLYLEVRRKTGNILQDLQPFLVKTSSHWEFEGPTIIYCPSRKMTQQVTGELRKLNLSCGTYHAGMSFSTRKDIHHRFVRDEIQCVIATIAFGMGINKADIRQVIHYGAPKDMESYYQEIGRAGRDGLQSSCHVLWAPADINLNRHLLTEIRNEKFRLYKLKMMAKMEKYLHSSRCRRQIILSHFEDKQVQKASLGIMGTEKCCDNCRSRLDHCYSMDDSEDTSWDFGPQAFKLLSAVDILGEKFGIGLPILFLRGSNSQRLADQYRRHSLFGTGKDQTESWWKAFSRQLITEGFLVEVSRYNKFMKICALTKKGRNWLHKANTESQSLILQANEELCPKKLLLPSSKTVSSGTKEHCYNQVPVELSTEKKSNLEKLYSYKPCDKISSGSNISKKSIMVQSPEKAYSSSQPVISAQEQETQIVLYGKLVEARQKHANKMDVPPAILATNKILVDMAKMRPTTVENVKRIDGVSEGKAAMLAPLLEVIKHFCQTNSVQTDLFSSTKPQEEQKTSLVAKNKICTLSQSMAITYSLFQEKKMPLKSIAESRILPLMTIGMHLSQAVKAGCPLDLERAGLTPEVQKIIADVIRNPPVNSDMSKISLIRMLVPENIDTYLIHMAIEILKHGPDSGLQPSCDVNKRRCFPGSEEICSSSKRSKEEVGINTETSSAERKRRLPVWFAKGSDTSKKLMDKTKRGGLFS
# “And” between values parts separate entries of the source, which are not always exact repeats. Identical values can stand only once. Hit rate of the full screen: of about 360,000 compounds, about 1,700 (0.47%) were called active. Inconclusive results, whose numbers are uncertain, are shown with a selection of clear calls. The call rests on the fitted dose curve; in most records, active means well fitted inhibition curve with a large enough effect; inconclusive means small, poorly fitted or top-dose-only effect; inactive means no such curve, though single readings can be large or run the other way. Where the call is inconclusive, the potency comes from a doubtful curve fit.
# Biological target: Bifunctional 3'-5' exonuclease/ATP-dependent helicase WRN (Homo sapiens) (UniProt Q14191)
# Test: qHTS for Inhibitors of WRN Helicase; further: nearly all actives have a fitted effect of over 55% in size
# Conditions: WRN helicase unwinding, fluorescent forked duplex, kinetic; activity change, negative = inhibition: at 114 µM (top of the series) unless noted
# How it was run: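 WRN at 20 nM final preincubated with compound 15 min at room temperature; reaction started with 100 nM fluorophore/quencher forked duplex oligonucleotide and 2 mM ATP final. Unwinding followed kinetically by red fluorescence (ex 525, em 598 nm).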
# On the % scale 0 is the no-effect control and ±100 the full control effect; potency means the concentration at half of the fitted maximal effect.
Structure (SMILES),"activity change, negative = inhibition",Potency
Cc1ccc(S(=O)(=O)N2CN(Cc3ccco3)c3nc4ccccc4nc32)cc1,inactive: -13%,
CC1(C)Cc2c(C#N)c(N3CCN(C(=O)c4ccccc4Cl)CC3)nc(-c3ccco3)c2CS1,,active: 35.5 µM
COc1ccc(OC)c(C(=O)c2c(C)oc3cc([N+](=O)[O-])c(O)c([N+](=O)[O-])c23)c1,,"inconclusive: 89.1 µM [inhibitor, single point]"
CCCCCCCCCCCCCCCC[n+]1ccc(C(N)=O)cc1,,"inconclusive: 17.8 µM [inhibitor, single point]"
CCCCOc1ccc(S(=O)(=O)N2CCN(C)CC2)cc1,,"inconclusive: 39.8 µM [inhibitor, single point]"
C=CCN(c1ccccc1)S(=O)(=O)c1c(C)[nH]c(=O)[nH]c1=O,,"inconclusive: 25.1 µM [inhibitor, single point]"
Cc1cc2[nH]c3c(c[n+](C)c4ccccc34)c2cc1C,inactive: 23.8% [at 11.6 µM],
COc1cc(Br)cc2cc(C(=O)N3CCN(C(=O)c4ccco4)CC3)c(=O)oc12,,"inconclusive: 56.2 µM [inhibitor, partial curve]"
CCCCNC(=O)c1ccc2nc(-c3ccco3)c(-c3ccco3)nc2c1,,active: 79.4 µM
O=C(Cc1cc(=O)[nH][nH]1)N/N=C/c1c(Cl)cccc1Cl,,"inconclusive: 35.5 µM [inhibitor, full curve, poor fit]"
Cc1c(C(=O)NCCO)sc2nc3n(c(=O)c12)CCC3,,"inconclusive: 25.1 µM [inhibitor, single point]"
O=C(COC(=O)Cc1ccc(Cl)cc1)NCc1ccco1,,"inconclusive: 25.1 µM [inhibitor, full curve]"
Cc1ccc(-n2[nH]c(C)c(C=Nc3ccc(S(=O)(=O)Nc4nccs4)cc3)c2=O)cc1C,,"inconclusive: 15.8 µM [inhibitor, single point]"
O=[N+]([O-])c1ccc(N2CCOCC2)c([N+](=O)[O-])c1,inactive: 8.65%,
O=C(N/N=C/c1cccc(OC(=O)c2cccc(Br)c2)c1)c1ccncc1,,"inconclusive: 17.8 µM [inhibitor, full curve, poor fit]"
COc1cccc(-c2nnc(Nc3nc4c(F)cccc4s3)o2)c1,,"inconclusive: 50.1 µM [inhibitor, partial curve]"
O=C(Nc1ccccc1)c1c(F)cccc1F,inactive: -3.88%,
O=C(Nc1ccc([N+](=O)[O-])cc1)Nc1nc(-c2ccc(Cl)s2)cs1,,"inconclusive: 50.1 µM [inhibitor, partial curve]"
Nc1nonc1-c1nc2ccccc2n1CC(=O)N/N=C/c1ccc(-c2cccc(C(=O)O)c2)o1,,active: 39.8 µM
O=C(O)c1ccc(N/N=C/c2cc3c(cc2[N+](=O)[O-])OCO3)cc1,inactive: -12.5% [at 57.1 µM],
CCOc1ccc(S(=O)(=O)N(C(=O)c2ccco2)c2cc3sc(=O)oc3c3ccccc23)cc1,,"inconclusive: 20 µM [inhibitor, single point]"
C/C(CC(=O)Nc1ccc2ccccc2c1)=N\NC(=O)c1ccc(O)c(O)c1,inactive: -9.45% [at 11.6 µM],
Cc1ccccc1N1CC(C(=O)Nc2nnc(SCCC3OCCO3)s2)CC1=O (centres undefined),,"inconclusive: 89.1 µM [inhibitor, partial curve]"

Structure (SMILES),"activity change, negative = inhibition",Potency
Cc1ccc2nc(N3C(=O)C(O)=C(C(=O)c4ccc(C)o4)C3c3cccc(O)c3)sc2c1 (centres undefined),,"inconclusive: 56.2 µM [inhibitor, partial curve]"
NNC(=O)CCC(=O)Nc1ccccc1,inactive: 6.82%,
O=C(Nc1ccccc1C(=O)NCCCN1CCOCC1)c1ccc(Cl)cc1,,"inconclusive: 89.1 µM [inhibitor, single point]"
O=C1C=C(c2ccccc2)C(=O)N1Nc1ccccc1,,"inconclusive: 39.8 µM [inhibitor, partial curve]"
Cc1sc(NC(=O)C2CCCC2)c(C#N)c1C,inactive: -6.33%,
CC(C)NC(=S)N/N=C/c1ccc2c(c1)OCCO2,,"inconclusive: 39.8 µM [inhibitor, single point]"
CCN1C(=O)/C(=C\C=C2/C=CC=CN2CC)SC1=S,,"inconclusive: 11.2 µM [inhibitor, full curve, poor fit]"
Cc1cc(C)c(C)c(S(=O)(=O)Nc2ccccc2N2CCOCC2)c1C,inactive: -0.995%,
CCNC1=C(Cl)C(=O)c2ccccc2C1=O,inactive: -14.8%,
S=c1[nH]nc(-c2ccco2)n1/N=C/C=C/c1ccco1,,"inconclusive: 35.5 µM [inhibitor, single point]"
C#CCCc1cscc1/C=[N+](\[O-])c1ccc(C(=O)OCC)cc1,inactive: -0.19%,
O=c1c(C(c2c(O)nc3n(c2=O)CCS3)c2cccc3ccccc23)c(O)nc2n1CCS2,,"inconclusive: 17.8 µM [inhibitor, full curve]"
O=C(CNC(=O)C12CC3CC(CC(C3)C1)C2)N/N=C\c1ccccn1,,"inconclusive: 39.8 µM [inhibitor, single point]"
COc1cc(/C=C/c2ccc(/C=C/c3cc(OC)c(OC)c(OC)c3)cc2)cc(OC)c1OC,,"inconclusive: 17.8 µM [inhibitor, partial curve]"
COCCNC(=O)C1CCN(Cc2cccc(OCc3ccccc3)c2)CC1,,"inconclusive: 89.1 µM [inhibitor, single point]"
Cc1cc(Br)ccc1-n1[nH]c(C)c(C=Nc2cccc3nsnc23)c1=O,,"inconclusive: 50.1 µM [inhibitor, partial curve]"
Nc1cc([N+](=O)[O-])ccc1Nc1ccc(O)cc1,inactive: -10.6%,
O=C(O)c1cc(/C=C/c2ccc(N3CCOCC3)cc2)nc2ccccc12,,"inconclusive: 79.4 µM [inhibitor, single point]"
O=C(N/C(=C\c1ccc(-c2ccccc2)o1)C(=O)N1CCOCC1)c1ccccc1,,"inconclusive: 28.2 µM [inhibitor, single point]"
CCOc1cnc(C(=O)NNC(=O)c2ccccc2Br)o1,inactive: -11.3%,
CC1=C/C(=N\OS(=O)(=O)c2ccccc2)C=CC1=O,,active: 31.6 µM
COc1ccccc1CNC(=O)C12CC3CC(CC(C3)C1)C2,inactive: -4.25%,
CCn1c(=O)c(=O)[nH]c2cc(C(=O)N(C)Cc3ccc(OC)c(F)c3)ccc21,,"inconclusive: 44.7 µM [inhibitor, partial curve]"

Structure (SMILES),"activity change, negative = inhibition",Potency
O=C(O)c1ccccc1C1=Nc2ccc(O)cc2Oc2cc(O)ccc21,,"inconclusive: 100 µM [inhibitor, partial curve]"
Cc1cc(C(F)(F)F)nc(SCc2ccc(C(=O)O)o2)n1,inactive: -9.54% [at 11.6 µM],
CC(=O)Nc1n[nH]c(=S)s1,,"inconclusive: 31.6 µM [inhibitor, partial curve]"
O=C1c2ccccc2-c2nc3ccccc3n21,,"inconclusive: 56.2 µM [inhibitor, partial curve] and inconclusive: 35.5 µM [inhibitor, partial curve]"
COc1ccc(-c2ccc(SCC(=O)NCc3ccc4c(c3)OCO4)nn2)cc1OC,,"inconclusive: 89.1 µM [inhibitor, partial curve]"
COc1cc(CN2CCc3c([nH]c4ccccc34)C2)cc(OC)c1,,"inconclusive: 70.8 µM [inhibitor, partial curve]"
Cc1cc(/C=C2\SC(=S)NC2=O)c(C)n1-c1ccccc1,inactive: -29.5%,
O=C(Nc1ccc(F)cc1)C(c1cccc(F)c1)N1CCN(c2ccncc2)CC1 (centres undefined),inactive: 4.31%,
Cc1ccsc1C(=O)OCC(=O)Nc1nnc(-c2ccccc2)o1,,"inconclusive: 35.5 µM [inhibitor, full curve, poor fit]"
Cc1ccc(Cl)cc1N1CCN(C(=O)COc2ccc3c(c2)CCC3)CC1,inactive: -11.4%,
COc1cc(C(=O)N2CCN(c3cccc(C(F)(F)F)c3)CC2)ccc1OCC(=O)N1CCOCC1,inactive: 1.08%,
O=C(CSc1nncc2ccccc12)Nc1cccc(O)c1,,"inconclusive: 89.1 µM [inhibitor, single point]"
CCn1c(CSc2nnc(-c3ccncc3)n2CCOC)nc2cc(C(=O)O)ccc21,,"inconclusive: 28.2 µM [inhibitor, single point]"
COc1ccc(/C=N/Nc2cc(C)nc3ccccc23)cc1,,"inconclusive: 56.2 µM [inhibitor, partial curve]"
COc1ccc([N+](=O)[O-])cc1NCc1cccc([N+](=O)[O-])c1,,"inconclusive: 25.1 µM [inhibitor, single point]"
COCCCN(C(=S)Nc1c(C)cc(C)cc1C)C(C)c1ccccn1 (centres undefined),,"inconclusive: 31.6 µM [inhibitor, single point]"
O=C(O)c1ccc(N/N=C/C=C/c2ccc([N+](=O)[O-])o2)cc1,,"inconclusive: 39.8 µM [inhibitor, partial curve]"
CC1=NN(c2ccc(Cl)c(C(=O)O)c2)C(=O)/C1=C/c1ccc(-c2ccccc2[N+](=O)[O-])o1,,active: 44.7 µM
Cc1ccc(CNC(=O)COC(=O)c2cnccn2)cc1,,"inconclusive: 89.1 µM [inhibitor, single point]"
CN(C)S(=O)(=O)c1ccc(SCC(=O)Nc2cccc(S(=O)(=O)N3CCCC3)c2)nc1,inactive: -8.58%,
CCOc1cc(/C=N/N=C2/NC(=O)C(CC(=O)O)S2)ccc1OCc1ccc(Cl)cc1Cl (centres undefined),,"inconclusive: 25.1 µM [inhibitor, single point]"
CCOc1ccc(N2C(=O)C3Sc4[nH]c(=O)sc4C(/C=C/c4ccccc4)C3C2=O)cc1 (centres undefined),,"inconclusive: 35.5 µM [inhibitor, partial curve]"
Cc1[nH]n(-c2ccccc2)c(=O)c1C(c1ccc(C(=O)O)cc1)c1c(C)[nH]n(-c2ccccc2)c1=O,,"inconclusive: 56.2 µM [inhibitor, partial curve]"
